# Test results taken from the GenesisPotency data set.
# Chains of the proteins cited; added tags and fusions are not shown. A line that says so, or that is headed by a name, gives the form on record, which may keep a tag or linker.
# UniProt Q12809, as listed by the source: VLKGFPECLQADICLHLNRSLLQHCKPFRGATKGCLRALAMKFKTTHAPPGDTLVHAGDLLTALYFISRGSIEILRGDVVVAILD
# This is a selection; strong and weak results do not stand in their true shares. Only a part of the results of these assays is listed, not drawn at random.
# Target: Voltage-gated inwardly rectifying potassium channel KCNH2, Homo sapiens (UniProt Q12809)
# Experiment: qHTS for Inhibitors of KCHN2 3.1: Mutant qHTS;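 active means maximum activity change below -70%; inconclusive means maximum activity change from -70% to -50%; inactive means maximum activity change above -50%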
row,SMILES,outcome
1,CCN(CC)CCOc1ccc(/C(=C(/Cl)c2ccccc2)c2ccccc2)cc1.O=C(O)CC(O)(CC(=O)O)C(=O)O,inactive
